From patent US20230365651A1 come the findings set out here.

No constants are given. Whether binding was seen depends on the method and setting. Binding can be weak; no strength is given.

The target in the first assay is HLA-A*02:01 (human). Kind of assay: UV peptide exchange, anti-b2m ELISA.
As to IMFDDAIERA [… (SEQ ID NO: 216)], the binding entry is recorded as “binds”.
In the case of KVLGVNVML [… (SEQ ID NO: 62)], the binding result is “binds”.
For SLLLPSIFL [… (SEQ ID NO: 67)], the binding entry is on record as “binds”.
Same read-out and setting: the same measure for YLEDTDRNL [… (SEQ ID NO: 71)]: “binds”; for TLLKALLEI [… (SEQ ID NO: 2)]: “binds”.
VSSSLTLKV [… (SEQ ID NO: 217)]: the binding entry is reported as “binds”.
Same read-out and setting: the same measure for MIPTFTALL [… (SEQ ID NO: 1)]: “binds”.
For GLLQELSSI [… (SEQ ID NO: 66)], the binding result is “binds”.
The same measure, in the same setting: the same measure for TTYEGSITV [… (SEQ ID NO: 69)]: “binds”; for FLIEELLFA [… (SEQ ID NO: 73)]: “binds”.
As for GLLSLTSTLYL [… (SEQ ID NO: 60)], the binding entry is “binds”.
Still for that read-out and setting: the same measure for KLFDTQQFL [… (SEQ ID NO: 68)]: “binds”; for MMEEMIFNL [… (SEQ ID NO: 63)]: “binds”.
For the molecule FLDPDRHFL [… (SEQ ID NO: 64)], the binding entry was “binds”.
Same read-out and setting: the same measure for VLQGLLRSL [… (SEQ ID NO: 70)]: “binds”; for KVVSVLYNV [… (SEQ ID NO: 75)]: “binds”; for YLTDLQVSL [… (SEQ ID NO: 72)]: “binds”.
On the same count and under the same terms, the same measure for YMVHIQVTL [… (SEQ ID NO: 61)]: “binds”.

The target of another assay is HLA-A*03:01 (human). The experiment in a line: UV peptide exchange, anti-b2m ELISA.
AVAPPTPASK [… (SEQ ID NO: 87)]: the binding result is “binds”.
In the case of ALEVAHRLK [… (SEQ ID NO: 30)], the binding result is given as “binds”.
For the molecule RAKELEATF [… (SEQ ID NO: 281)], the binding entry is “binds”.
Regarding SMYYPLQLK [… (SEQ ID NO: 24)], the binding entry is listed as “binds”.
Same read-out and setting: the same measure for RSLRYYYEK [… (SEQ ID NO: 91)]: “binds”; for RISEYLLEK [… (SEQ ID NO: 26)]: “binds”.
Still for that read-out and setting: the same measure for KVVDRWNEK [… (SEQ ID NO: 99)]: “binds”; for SVSGVKTTF [… (SEQ ID NO: 280)]: “binds”.
On the same count and under the same terms, the same measure for RVAELLLLH [… (SEQ ID NO: 89)]: “binds”; for KLQPAQTAAK [… (SEQ ID NO: 84)]: “binds”.
For the molecule QSMYYPLQLK [… (SEQ ID NO: 95)], the binding result is “binds”.
Same read-out and setting: the same measure for KSLIKSWKK [… (SEQ ID NO: 284)]: “binds”.
On to GMMKGGIRK [… (SEQ ID NO: 23)], for which the binding result was “binds”.
On the same count and under the same terms, the same measure for VLYGPAGLGK [… (SEQ ID NO: 27)]: “binds”; for TVAPPQGVVK [… (SEQ ID NO: 286)]: “binds”.
Same read-out and setting: the same measure for LLQPPPLLAR [… (SEQ ID NO: 98)]: “binds”.
As for KTYETNLEIKK [… (SEQ ID NO: 28)], the binding result is “binds”.
For the molecule SVSSETTKIKR [… (SEQ ID NO: 279)], the binding result was “binds”.
Take IVQEPTEEK [… (SEQ ID NO: 283)]: the binding result is “binds”.
Consider VLLGSLFSRK [… (SEQ ID NO: 85)], for which the binding result is on record as “binds”.
With RRIHTGEKPYK [… (SEQ ID NO: 287)], the binding entry was “binds”.
The same measure, in the same setting: the same measure for KVAGERYVYK [… (SEQ ID NO: 90)]: “binds”; for VVLLGSLFSRK [… (SEQ ID NO: 86)]: “binds”.
As to SLKERNPLK [… (SEQ ID NO: 22)], the binding entry was “binds”.
On the same count and under the same terms, the same measure for GTVNPTVGK [… (SEQ ID NO: 285)]: “binds”.
Still for that read-out and setting: the same measure for GTYAHTVNR [… (SEQ ID NO: 83)]: “binds”.
Still for that read-out and setting: the same measure for KILEEHTNK [… (SEQ ID NO: 93)]: “binds”; for AVRKPIVLK [… (SEQ ID NO: 21)]: “binds”; for NLSSITHER [… (SEQ ID NO: 278)]: “binds”.
Consider VVHAVFALK [… (SEQ ID NO: 88)], for which the binding entry is “binds”.
Same read-out and setting: the same measure for ATFERVLLR [… (SEQ ID NO: 94)]: “binds”; for RMASPVNVK [… (SEQ ID NO: 20)]: “binds”.
